Test results from patent US20250101108A1, “METHODS TO ENHANCE THERAPEUTIC EFFICACY IN MELANOMA VIA MODULATION OF CELL SURFACE PD-L1/L2” (THE REGENTS OF THE UNIVERSITY OF CALIFORNIA, priority 2021, published 2025).
Results are given in words; binding and its absence hold for the method and conditions named. In cells and extracts the contact can be indirect. A yes stands for co-enrichment or nearness to the bait. Other partners may have been found.

Chains of the proteins cited; added tags and fusions are not shown. Residues count along the entry.
UniProt Q9NZQ7, residues 19-290: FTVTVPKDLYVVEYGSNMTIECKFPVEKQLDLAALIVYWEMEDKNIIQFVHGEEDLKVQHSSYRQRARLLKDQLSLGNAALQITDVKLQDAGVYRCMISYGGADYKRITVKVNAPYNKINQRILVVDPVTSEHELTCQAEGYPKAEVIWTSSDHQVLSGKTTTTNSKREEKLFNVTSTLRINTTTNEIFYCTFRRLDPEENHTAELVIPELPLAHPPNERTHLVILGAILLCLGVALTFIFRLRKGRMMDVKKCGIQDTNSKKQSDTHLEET
UniProt Q9BQ51, residues 20-273: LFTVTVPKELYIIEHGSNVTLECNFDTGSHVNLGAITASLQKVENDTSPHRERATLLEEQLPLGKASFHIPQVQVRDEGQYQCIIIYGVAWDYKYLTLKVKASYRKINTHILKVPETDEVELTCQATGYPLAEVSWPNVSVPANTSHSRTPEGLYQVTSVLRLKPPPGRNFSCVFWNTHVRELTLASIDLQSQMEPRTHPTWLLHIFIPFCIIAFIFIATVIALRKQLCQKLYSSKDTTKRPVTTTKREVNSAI
UniProt Q96J02, residues 2-903: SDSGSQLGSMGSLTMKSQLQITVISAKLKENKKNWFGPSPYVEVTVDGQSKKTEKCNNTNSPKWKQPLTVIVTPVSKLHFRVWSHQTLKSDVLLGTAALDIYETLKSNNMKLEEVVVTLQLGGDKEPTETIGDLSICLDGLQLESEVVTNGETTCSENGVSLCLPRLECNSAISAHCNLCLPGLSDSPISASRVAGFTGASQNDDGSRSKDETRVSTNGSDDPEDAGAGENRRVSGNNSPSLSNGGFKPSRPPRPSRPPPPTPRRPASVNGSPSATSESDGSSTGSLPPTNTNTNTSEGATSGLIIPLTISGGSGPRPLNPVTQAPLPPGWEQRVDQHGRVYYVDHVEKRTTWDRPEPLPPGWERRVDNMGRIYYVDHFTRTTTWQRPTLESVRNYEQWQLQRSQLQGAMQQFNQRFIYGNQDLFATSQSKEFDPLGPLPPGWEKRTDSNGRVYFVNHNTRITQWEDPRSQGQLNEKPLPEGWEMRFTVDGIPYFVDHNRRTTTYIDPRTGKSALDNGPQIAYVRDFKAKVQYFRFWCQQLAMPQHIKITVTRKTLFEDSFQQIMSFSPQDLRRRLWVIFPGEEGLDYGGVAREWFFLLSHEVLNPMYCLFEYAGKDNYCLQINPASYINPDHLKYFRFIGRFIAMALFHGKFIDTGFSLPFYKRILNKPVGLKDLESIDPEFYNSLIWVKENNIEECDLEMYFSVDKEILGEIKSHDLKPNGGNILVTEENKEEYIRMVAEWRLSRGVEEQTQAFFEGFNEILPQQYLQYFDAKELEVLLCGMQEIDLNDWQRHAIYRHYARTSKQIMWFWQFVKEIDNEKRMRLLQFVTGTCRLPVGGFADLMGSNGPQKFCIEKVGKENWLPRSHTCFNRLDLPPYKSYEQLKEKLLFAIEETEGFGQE

Experiments:
PD-L1 (human) [1] = target: PD-L1 (human) (UniProt Q9NZQ7); assay: IP-MS, proximity labelling and co-immunoprecipitation (FIGS. 1A-1F)
PD-L2-FLAG (human) = PD-L2-FLAG (human) (UniProt Q9BQ51); assay: anti-FLAG immunoprecipitation and mass spectrometry, M229 R5 cells expressing PD-L2-FLAG
PD-L1 (human) [2] = target: PD-L1 (human) (UniProt Q9NZQ7); assay: summary sentence of Example 1 (co-immunoprecipitation, proximity labelling)

Measured: binding

E3 ligase ITCH (from UniProt Q96J02 2-903) (enzyme)
binds: all assays above
